Changes are numbered by the printed parent chain. These are yes or no findings as the source states them, for the method shown. Some entries that bind do so weakly or less than the wild type. Where a sequence is shown, tags or fusion partners need not be part of it.
Columns and labels:
[1] = biological target: T1, GST–Rabin8-WT (human) (UniProt Q96QF0); assay: pull-down; 5 μg GST fusion protein on glutathione–Sepharose 4B beads; 2–3 μg purified 6His–Rab11a preloaded with 100 µM GTPγS; RT, 2 h; 50 mM HEPES pH 7.4, 150 mM NaCl, 5 mM MgCl2, 0.1% Triton X-100, 0.1% BSA, 1 mM PMSF; bound Rab11 detected by immunoblotting; both purified
T1 sequence: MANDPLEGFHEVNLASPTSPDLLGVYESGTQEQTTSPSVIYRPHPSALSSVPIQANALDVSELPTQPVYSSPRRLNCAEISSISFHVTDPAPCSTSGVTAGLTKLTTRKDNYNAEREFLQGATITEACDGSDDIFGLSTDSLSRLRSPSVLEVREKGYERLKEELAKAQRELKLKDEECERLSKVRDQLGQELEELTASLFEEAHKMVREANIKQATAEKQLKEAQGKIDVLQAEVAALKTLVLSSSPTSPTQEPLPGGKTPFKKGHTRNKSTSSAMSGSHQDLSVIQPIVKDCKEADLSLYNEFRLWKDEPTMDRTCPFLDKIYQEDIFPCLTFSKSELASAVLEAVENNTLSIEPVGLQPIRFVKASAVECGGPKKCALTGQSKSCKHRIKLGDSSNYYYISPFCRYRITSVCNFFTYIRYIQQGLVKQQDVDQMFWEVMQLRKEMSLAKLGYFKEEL

The chains behind the UniProt entries cited, without tags or fusion partners.
UniProt P62491: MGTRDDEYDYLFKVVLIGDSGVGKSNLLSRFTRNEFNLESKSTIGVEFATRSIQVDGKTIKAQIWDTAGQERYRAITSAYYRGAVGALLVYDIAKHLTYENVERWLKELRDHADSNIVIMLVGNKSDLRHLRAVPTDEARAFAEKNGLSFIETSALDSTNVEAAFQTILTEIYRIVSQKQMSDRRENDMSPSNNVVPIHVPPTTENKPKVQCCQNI
UniProt P61006: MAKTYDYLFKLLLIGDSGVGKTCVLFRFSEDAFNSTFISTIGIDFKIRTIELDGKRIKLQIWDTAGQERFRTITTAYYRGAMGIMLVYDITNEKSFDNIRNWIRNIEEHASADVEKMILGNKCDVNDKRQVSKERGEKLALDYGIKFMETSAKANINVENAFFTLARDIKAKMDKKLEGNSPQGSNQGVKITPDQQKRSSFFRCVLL

[2] = biological target: T2, GST–Rabin8-S272E (human) (UniProt Q96QF0); assay: as above
T2 sequence: T1 sequence with S272E

[3] = biological target: T3, GST–Rabin8-F201A (human) (UniProt Q96QF0); assay: as above
T3 sequence: T1 sequence with F201A

[4] = biological target: T4, GST–Rabin8-S272A (human) (UniProt Q96QF0); assay: as above
T4 sequence: T1 sequence with S272A

[5] = biological target: T5, GST–Rabin8-E192A (human) (UniProt Q96QF0); assay: as above
T5 sequence: T1 sequence with E192A

[6] = biological target: T1, GST–Rabin8-WT (human); assay: pull-down; 5 μg GST fusion protein on glutathione–Sepharose 4B beads; 2–3 μg purified 6His–Rab8a preloaded with 100 µM GDPβS; RT, 2 h; 50 mM HEPES pH 7.4, 150 mM NaCl, 5 mM MgCl2, 0.1% Triton X-100, 0.1% BSA, 1 mM PMSF; bound Rab8 detected by immunoblotting; both purified
[7] = biological target: T6, GST-Rabin8-T419A/Y423A/L428A triple mutant (human) (UniProt Q96QF0); assay: as above
T6 sequence: T1 sequence with T419A, Y423A, L428A

[8] = biological target: T2, GST–Rabin8-S272E (human); assay: as above
[9] = biological target: T3, GST–Rabin8-F201A (human); assay: as above
[10] = biological target: T4, GST–Rabin8-S272A (human); assay: as above
[11] = biological target: T5, GST–Rabin8-E192A (human); assay: as above

Measured: binding

6His–Rab11a (from UniProt P62491 1-216)
binds: [1] | [2] | [3] | [4] | [5]

6His–Rab8a (from UniProt P61006 1-207)
binds: [6] | [7] | [8] | [9] | [10] | [11]
